We go through three substances from article doi:10.1101/2024.09.06.611391.

Chains of the proteins cited; added tags and fusions are not shown. Residues count along the entry.
UniProt Q64339, residues 1-155: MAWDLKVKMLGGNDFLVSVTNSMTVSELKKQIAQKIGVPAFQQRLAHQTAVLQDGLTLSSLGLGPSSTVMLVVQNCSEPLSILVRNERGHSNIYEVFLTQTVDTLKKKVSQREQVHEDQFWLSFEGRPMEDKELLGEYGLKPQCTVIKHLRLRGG
UniProt P56399: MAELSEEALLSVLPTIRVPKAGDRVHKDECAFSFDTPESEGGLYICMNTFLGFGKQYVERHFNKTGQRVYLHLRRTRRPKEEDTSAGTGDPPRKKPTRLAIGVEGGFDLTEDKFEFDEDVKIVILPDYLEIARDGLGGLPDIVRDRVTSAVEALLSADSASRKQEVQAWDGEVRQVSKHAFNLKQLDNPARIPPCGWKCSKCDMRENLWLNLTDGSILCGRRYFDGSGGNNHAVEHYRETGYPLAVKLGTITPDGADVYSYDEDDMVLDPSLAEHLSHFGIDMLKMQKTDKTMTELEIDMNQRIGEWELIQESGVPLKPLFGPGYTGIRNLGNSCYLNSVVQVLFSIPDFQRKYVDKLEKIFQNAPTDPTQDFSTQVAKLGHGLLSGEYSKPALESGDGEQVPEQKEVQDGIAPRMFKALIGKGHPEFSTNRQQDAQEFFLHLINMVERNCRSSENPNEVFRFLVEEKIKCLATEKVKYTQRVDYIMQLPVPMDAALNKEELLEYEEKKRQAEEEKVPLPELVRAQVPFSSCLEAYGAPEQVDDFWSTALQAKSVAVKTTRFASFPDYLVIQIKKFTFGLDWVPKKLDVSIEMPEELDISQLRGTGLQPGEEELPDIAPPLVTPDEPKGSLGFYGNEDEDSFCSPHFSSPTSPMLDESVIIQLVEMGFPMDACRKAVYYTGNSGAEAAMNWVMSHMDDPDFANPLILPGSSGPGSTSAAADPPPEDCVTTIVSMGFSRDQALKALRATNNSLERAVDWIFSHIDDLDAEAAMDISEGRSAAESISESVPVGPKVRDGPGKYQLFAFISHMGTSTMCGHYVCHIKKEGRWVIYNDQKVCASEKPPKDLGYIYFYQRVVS
UniProt Q9JMA1: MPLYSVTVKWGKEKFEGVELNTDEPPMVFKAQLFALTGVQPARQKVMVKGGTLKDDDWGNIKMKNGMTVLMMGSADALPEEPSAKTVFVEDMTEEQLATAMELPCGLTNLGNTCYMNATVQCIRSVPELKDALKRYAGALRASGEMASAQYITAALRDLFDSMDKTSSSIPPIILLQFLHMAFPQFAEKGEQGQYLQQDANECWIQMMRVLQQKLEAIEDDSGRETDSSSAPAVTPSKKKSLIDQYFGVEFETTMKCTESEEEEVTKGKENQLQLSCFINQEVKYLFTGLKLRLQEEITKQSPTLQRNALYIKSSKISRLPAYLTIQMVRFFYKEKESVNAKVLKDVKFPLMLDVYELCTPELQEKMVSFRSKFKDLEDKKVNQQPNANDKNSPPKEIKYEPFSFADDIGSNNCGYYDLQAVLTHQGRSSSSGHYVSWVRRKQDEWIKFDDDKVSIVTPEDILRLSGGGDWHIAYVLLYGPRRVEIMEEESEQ
UniProt B1AY13: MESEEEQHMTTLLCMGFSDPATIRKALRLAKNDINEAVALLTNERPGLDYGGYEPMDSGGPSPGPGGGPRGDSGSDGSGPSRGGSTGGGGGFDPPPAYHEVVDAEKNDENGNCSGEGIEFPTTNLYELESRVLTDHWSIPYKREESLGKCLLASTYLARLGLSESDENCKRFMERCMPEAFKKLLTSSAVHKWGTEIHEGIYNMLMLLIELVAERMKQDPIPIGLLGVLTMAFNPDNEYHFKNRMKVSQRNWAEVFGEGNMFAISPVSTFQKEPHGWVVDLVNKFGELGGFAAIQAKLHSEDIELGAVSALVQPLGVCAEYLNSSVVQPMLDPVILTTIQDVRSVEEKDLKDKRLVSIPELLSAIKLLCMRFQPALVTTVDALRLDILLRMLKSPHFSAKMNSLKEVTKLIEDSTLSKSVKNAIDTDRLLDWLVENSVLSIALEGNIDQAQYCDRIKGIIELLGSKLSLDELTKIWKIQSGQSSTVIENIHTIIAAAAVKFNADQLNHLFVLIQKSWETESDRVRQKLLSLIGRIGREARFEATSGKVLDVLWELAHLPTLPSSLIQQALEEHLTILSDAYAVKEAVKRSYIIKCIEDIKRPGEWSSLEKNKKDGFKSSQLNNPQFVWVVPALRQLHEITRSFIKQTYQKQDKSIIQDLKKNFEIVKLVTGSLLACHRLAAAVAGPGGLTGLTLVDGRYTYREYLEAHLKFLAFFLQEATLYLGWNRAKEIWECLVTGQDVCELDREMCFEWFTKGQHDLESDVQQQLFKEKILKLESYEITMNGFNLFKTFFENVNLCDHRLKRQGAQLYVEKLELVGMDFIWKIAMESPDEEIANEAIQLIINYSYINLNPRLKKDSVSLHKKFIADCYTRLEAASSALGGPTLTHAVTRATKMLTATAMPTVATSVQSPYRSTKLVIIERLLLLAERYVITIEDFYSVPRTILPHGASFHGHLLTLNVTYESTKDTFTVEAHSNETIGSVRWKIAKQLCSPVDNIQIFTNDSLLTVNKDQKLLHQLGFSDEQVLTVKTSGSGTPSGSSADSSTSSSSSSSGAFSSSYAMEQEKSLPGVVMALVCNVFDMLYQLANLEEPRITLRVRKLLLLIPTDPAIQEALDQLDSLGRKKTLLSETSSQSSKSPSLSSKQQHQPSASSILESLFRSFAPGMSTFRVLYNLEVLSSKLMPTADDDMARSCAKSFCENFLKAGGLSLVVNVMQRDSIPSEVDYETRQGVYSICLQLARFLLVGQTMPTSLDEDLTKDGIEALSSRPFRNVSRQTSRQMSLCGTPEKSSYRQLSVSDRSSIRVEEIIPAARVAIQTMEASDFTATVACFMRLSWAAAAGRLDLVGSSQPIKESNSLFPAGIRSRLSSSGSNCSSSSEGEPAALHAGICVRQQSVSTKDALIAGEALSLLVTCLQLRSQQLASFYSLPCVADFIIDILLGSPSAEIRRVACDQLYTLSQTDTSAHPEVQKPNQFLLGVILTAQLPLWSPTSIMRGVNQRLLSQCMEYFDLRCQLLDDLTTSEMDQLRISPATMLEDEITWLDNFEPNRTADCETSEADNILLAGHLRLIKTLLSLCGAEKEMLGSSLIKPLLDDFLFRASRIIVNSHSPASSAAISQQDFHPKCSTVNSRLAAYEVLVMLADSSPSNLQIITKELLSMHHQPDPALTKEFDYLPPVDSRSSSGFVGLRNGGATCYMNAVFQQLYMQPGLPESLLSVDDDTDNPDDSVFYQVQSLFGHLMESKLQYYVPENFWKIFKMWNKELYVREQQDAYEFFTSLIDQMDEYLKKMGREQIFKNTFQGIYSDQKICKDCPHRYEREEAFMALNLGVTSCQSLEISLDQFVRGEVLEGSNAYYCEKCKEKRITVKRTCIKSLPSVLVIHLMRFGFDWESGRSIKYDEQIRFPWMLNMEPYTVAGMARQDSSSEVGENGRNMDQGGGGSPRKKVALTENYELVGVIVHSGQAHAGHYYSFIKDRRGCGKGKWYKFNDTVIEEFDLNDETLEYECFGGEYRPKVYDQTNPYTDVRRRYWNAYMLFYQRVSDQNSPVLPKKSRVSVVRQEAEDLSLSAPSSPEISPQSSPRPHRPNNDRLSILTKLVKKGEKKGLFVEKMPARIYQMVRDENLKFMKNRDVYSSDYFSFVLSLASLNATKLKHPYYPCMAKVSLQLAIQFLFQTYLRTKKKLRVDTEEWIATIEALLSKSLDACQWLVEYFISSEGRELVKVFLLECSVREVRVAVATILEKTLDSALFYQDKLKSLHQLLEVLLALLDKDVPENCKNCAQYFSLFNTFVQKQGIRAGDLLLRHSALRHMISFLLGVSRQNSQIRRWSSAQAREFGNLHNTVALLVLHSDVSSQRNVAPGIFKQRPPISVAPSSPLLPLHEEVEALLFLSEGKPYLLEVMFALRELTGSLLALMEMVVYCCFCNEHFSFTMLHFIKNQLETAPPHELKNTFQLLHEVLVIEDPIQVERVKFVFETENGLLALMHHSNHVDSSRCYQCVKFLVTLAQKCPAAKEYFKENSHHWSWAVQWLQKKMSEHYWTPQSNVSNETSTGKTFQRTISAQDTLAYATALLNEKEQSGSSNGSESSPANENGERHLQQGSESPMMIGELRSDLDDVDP

No constants are given. Whether binding was seen depends on the method and setting. Binding seen in cells or lysates may run through a third protein. These calls come from enrichment with a bait or labelling near it, and not all partners need be listed.

The target in the assay is biotin-tagged full-length mouse ISG15 propargylamide probe (mouse) (UniProt Q64339). Put plainly: affinity purification with mass spectrometry.
Consider “USP5 (endogenous, mouse EL4 cells) (from UniProt P56399 1-858) (enzyme)”, for which the binding result is reported as “binds”.

Take “USP14 (endogenous, mouse EL4 cells) (from UniProt Q9JMA1 1-493) (enzyme)”: the binding result is “binds”.

As to “USP24 (endogenous, mouse EL4 cells) (from UniProt B1AY13 1-2617) (enzyme)”, the binding result was “binds”.
